# Experimental data from patent publication US9180118B2, “Thiadiazolidinone derivatives” (University of Rochester, priority 2006, dated 2015).
# At least one compound was matched to its structure with a doubt left.
# System: primary AML specimens
# Test: Viability of primary AML specimens, Annexin V/7-AAD flow cytometry
# Assay type: cell-based, human
# Details: cell death kinetics
# Protocol: The cells were isolated and processed as described. […] All drug treatments were performed in triplicate. […] Total viable cell numbers were determined using a flow cytometric apoptosis assay as described. Briefly, after 18 h of treatment, specimens were labeled with anti-CD34-PE (Becton Dickinson, San Jose, Calif.) for 20 minutes. […] The total number of events collected was 100,000. The percent viable cells was defined as AnnexinV^neg/7-AAD^neg cells on total (ungated) cells and on gates set for CD34^+ populations. • [1] Jordan, C. T., et al., The interleukin-3 receptor alpha chain is a unique marker for human acute myelogenous leukemia stem cells. Leukemia, 2000. 14(10): p. […] Lansdorp, P. M. and W. Dragowska, Long-term erythropoiesis from constant numbers of CD34+ cells in serum-free cultures initiated with highly purified progenitor cells from human bone marrow. […] Guzman, M. L., et al., Nuclear factor-kappaB is constitutively activated in primitive human acute myelogenous leukemia cells. […] 98(8): p.
compound,measurement,value
Cc1c(C)c2c(c(C)c1O)CCC(C)(COc1ccc(CC3SC(=O)NC3=O)cc1)O2 (stereo not shown) [Troglitazone],Rapid kinetics,No
